SMILES strings stand for the structures. The list shows only some results of the screen, not a fair sample: it gathers tests that were run many times, whatever their T/C, doses with no T/C, and many T/C values between a quarter and a half above the control. Further doses and runs are listed elsewhere. T/C is the treated group as % of the vehicle group. Some entries give survivors of the animals treated and no T/C: the source files T/C as zero there, which appears to mark a toxic dose or a test without result, not a measured value. Some survivor counts are full or nearly so, which does not show that the dose was tolerated: the source hardly ever lists a survival T/C far under the control, and the zero likely stands for such cases as well. Counts of survivors are from the toxicity check (mostly the fifth day) where no day follows; animals may have died later. Schedules are NCI's codes, taken here to give the interval after Q, in days (D) or hours (H), and the number of doses after X. Some schedules carry Z or #; the key to these is not given. Where survival is the endpoint, the PubChem record calls one and a half times the control and up active, and a quarter to a half above the control has no call in these data; cut-offs in other NCI protocols can differ. Some entries were tested several times; the results are listed from low to high. Some T/C values carry the count of animals alive at the toxicity check (mostly the fifth day); without a count, all were alive then.

Data on 11 compounds can be found in PubChem BioAssay AID248 (DTP/NCI, 2004).

This experiment has as its system L1210 leukemia ip in BDF1 mice, survival T/C. The experiment in a line: NCI In Vivo Anticancer Drug Screen. Data for tumor model L1210 Leukemia (intraperitoneal) in B6D2F1 (BDF1) mice. The note with it: T/C endpoint: mean survival time, higher T/C = longer survival.
[1] abbreviates: dose: 100.0 mg/kg/injection, schedule: Q01DX001 (ip), vehicle: saline.
Setting [2] is: dose: 200.0 mg/kg/injection, schedule: Q01DX001 (ip), vehicle: saline.
The mark [3] stands for this setting: dose: 400.0 mg/kg/injection, schedule: Q01DX001 (ip), vehicle: saline.

As for `c1cc[n+](CCSCCSCC[n+]2ccccc2)cc1`, the survivor count is, setting by setting: (dose: 12.5 mg/kg/injection, schedule: Q01DX009 (ip), vehicle: acetone) 0 of 6; (dose: 18.0 mg/kg/injection, schedule: Q04DX003 (ip), vehicle: saline) 5 of 6; (dose: 25.0 mg/kg/injection, schedule: Q01DX001 (ip), vehicle: saline) 0 of 6; (dose: 28.0 mg/kg/injection, schedule: Q04DX003 (ip), vehicle: saline) 1 of 6; (dose: 40.0 mg/kg/injection, schedule: Q04DX003 (ip), vehicle: saline) 0 of 6; (dose: 50.0 mg/kg/injection, schedule: Q01DX001 (ip), vehicle: saline) 0 of 6. Further, the survivor count is, setting by setting: under setting [1], 0 of 6; under setting [2], 1 of 6; under setting [3], 1 of 6.
Consider `CC(=O)N(C)N=Nc1ccc(C)cc1`, for which, for the setting “dose: 200.0 mg/kg/injection, schedule: Q01DX009 (ip), vehicle: Klucel (hydroxypropylcellulose) (HPC)”, the T/C is 128 [5 of 6 alive] and 133 % of control. The survivor count (dose: 400.0 mg/kg/injection, schedule: Q04DX003 (ip), vehicle: other) is 3 of 6.
As to `O=C(OCCCCCOC(=O)c1ccccc1O)c1ccccc1O`, the survivor count (dose: 400.0 mg/kg/injection, schedule: Q01DX001 (ip), vehicle: other) is given as 6 of 6.
`CCN=C(c1ccc(NC(=O)c2ccc(C(=O)Nc3ccc(C(=NCC)N(CC)CC)cc3)c(Cl)c2)cc1)N(CC)CC`: the survivor count was 2 of 6 (dose: 1.87 mg/kg/injection, schedule: Q01DX Z (ip), vehicle: carboxymethylcellulose (CMC)); 0 of 6 (dose: 3.75 mg/kg/injection, schedule: Q01DX Z (ip), vehicle: carboxymethylcellulose (CMC)); 0 of 6 (dose: 7.5 mg/kg/injection, schedule: Q01DX Z (ip), vehicle: carboxymethylcellulose (CMC)); 0 of 6 (dose: 15.0 mg/kg/injection, schedule: Q01DX Z (ip), vehicle: carboxymethylcellulose (CMC)); 0 of 6 (dose: 30.0 mg/kg/injection, schedule: Q01DX Z (ip), vehicle: carboxymethylcellulose (CMC)); 0 of 6 (dose: 60.0 mg/kg/injection, schedule: Q01DX Z (ip), vehicle: carboxymethylcellulose (CMC)). Moreover, the survivor count (dose: 120.0 mg/kg/injection, schedule: Q01DX Z (ip), vehicle: carboxymethylcellulose (CMC)) is 0 of 6.
In the case of `[Cu+2].[NH-]CC(=O)O.[NH-]CC(=O)O`, the survivor count (dose: 100.0 mg/kg/injection, schedule: Q04DX003 (ip), vehicle: saline with Tween-80) was 0 of 6; the survivor count (dose: 200.0 mg/kg/injection, schedule: Q04DX003 (ip), vehicle: saline with Tween-80) is on record as 0 of 6; the survivor count (dose: 400.0 mg/kg/injection, schedule: Q04DX003 (ip), vehicle: saline with Tween-80) was 0 of 6.
On to `CN1CC(C)(C)C(O)c2ccccc21` (stereo unspecified), for which the survivor count by setting is: (dose: 100.0 mg/kg/injection, schedule: Q04DX002 (ip), vehicle: other) 1 of 3; (dose: 200.0 mg/kg/injection, schedule: Q04DX002 (ip), vehicle: other) 1 of 3; (dose: 400.0 mg/kg/injection, schedule: Q04DX002 (ip), vehicle: other) 0 of 3.
`O=C(Nc1ccccc1)Nc1cc(C(F)(F)F)ccc1Cl`: where the note is “dose: 200.0 mg/kg/injection, schedule: Q01DX009 (ip), vehicle: saline with Tween-80”, the survivor count is 6 of 6.
For `S=c1nc[nH]c2c1ncn2C1CCCCO1` (stereo unspecified), the T/C runs as follows: (dose: 31.0 mg/kg/injection, schedule: Q01DX Z (ip), vehicle: carboxymethylcellulose (CMC)) 129 % of control; (dose: 60.0 mg/kg/injection, schedule: Q01DX009 (ip), vehicle: saline) 137 and 138 % of control; (dose: 62.0 mg/kg/injection, schedule: Q01DX Z (ip), vehicle: carboxymethylcellulose (CMC)) 128 % of control; under setting [1], 138 % of control; (dose: 200.0 mg/kg/injection, schedule: Q01DX001 (ip), vehicle: carboxymethylcellulose (CMC)) 135 % of control; under setting [2], 132 % of control. Besides, the T/C reads like this: (dose: 300.0 mg/kg/injection, schedule: Q01DX001 (ip), vehicle: saline) 128 % of control; (dose: 400.0 mg/kg/injection, schedule: Q01DX001 (ip), vehicle: carboxymethylcellulose (CMC)) 130 and 145 % of control. Further, the survivor count (dose: 240.0 mg/kg/injection, schedule: Q01DX009 (ip), vehicle: saline) is 6 of 6 and the survivor count under setting [3] is reported as 1 of 6.
As for `COc1ccccc1N1C(=O)C2C(C1=O)C1(Cl)C(Cl)=C(Cl)C2(Cl)C1(Cl)Cl` (stereo unspecified), the survivor count was 1 of 6 (dose: 300.0 mg/kg/injection, schedule: Q01DX009 (ip), vehicle: Klucel (hydroxypropylcellulose) (HPC)) and 3 of 6 (dose: 400.0 mg/kg/injection, schedule: Q04DX003 (ip), vehicle: Klucel (hydroxypropylcellulose) (HPC)).
Turning to `O=C1OC(=O)c2ccc(SCC(O)CCl)c3cccc1c23` (stereo unspecified), the survivor count runs as follows: (dose: 200.0 mg/kg/injection, schedule: Q01DX009 (ip), vehicle: other) 2 of 6; (dose: 400.0 mg/kg/injection, schedule: Q01DX009 (ip), vehicle: other) 0 of 6.
As for `NNc1cc(S(=O)(=O)O)cc(C(=O)O)c1O`, the survivor count (dose: 400.0 mg/kg/injection, schedule: Q01DX009 (ip), vehicle: saline) is 5 of 6.
